B1: Serine/threonine-protein phosphatase 6 regulatory subunit 3; SAPS3 (protein, UniProt Q5H9R7 1-873, looked up)
Serine/threonine-protein …: MFWKFDLHSSSHIDTLLEREDVTLKELMDEEDVLQECKAQNRKLIEFLLKAECLEDLVSFIIEEPPQDMDEKIRYKYPNISCELLTSDVSQMNDRLGEDESLLMKLYSFLLNDSPLNPLLASFFSKVLSILISRKPEQIVDFLKKKHDFVDLIIKHIGTSAIMDLLLRLLTCIEPPQPRQDVLNWLNEEKIIQRLVEIVHPSQEEDRHSNASQSLCEIVRLSRDQMLQIQNSTEPDPLLATLEKQEIIEQLLSNIFHKEKNESAIVSAIQILLTLLETRRPTFEGHIEICPPGMSHSACSVNKSVLEAIRGRLGSFHELLLEPPKKSVMKTTWGVLDPPVGNTRLNVIRLISSLLQTNTSSINGDLMELNSIGVILNMFFKYTWNNFLHTQVEICIALILASPFENTENATITDQDSTGDNLLLKHLFQKCQLIERILEAWEMNEKKQAEGGRRHGYMGHLTRIANCIVHSTDKGPNSALVQQLIKDLPDEVRERWETFCTSSLGETNKRNTVDLVTTCHIHSSSDDEIDFKETGFSQDSSLQQAFSDYQMQQMTSNFIDQFGFNDEKFADQDDIGNVSFDRVSDINFTLNTNESGNIALFEACCKERIQQFDDGGSDEEDIWEEKHIAFTPESQRRSSSGSTDSEESTDSEEEDGAKQDLFEPSSANTEDKMEVDLSEPPNWSANFDVPMETTHGAPLDSVGSDVWSTEEPMPTKETGWASFSEFTSSLSTKDSLRSNSPVEMETSTEPMDPLTPSAAALAVQPEAAGSVAMEASSDGEEDAESTDKVTETVMNGGMKETLSLTVDAKTETAVFKSEEGKLSTSQDAACKDAEECPETAEAKCAAPRPPSSSPEQRTGQPSAPGDTSVNGPV
B2: N-terminal kinase-like protein; SCYL1, telomerase i (protein, UniProt Q96KG9 1-808, looked up)
N-terminal kinase-like protein: MWFFARDPVRDFPFELIPEPPEGGLPGPWALHRGRKKATGSPVSIFVYDVKPGAEEQTQVAKAAFKRFKTLRHPNILAYIDGLETEKCLHVVTEAVTPLGIYLKARVEAGGLKELEISWGLHQIVKALSFLVNDCSLIHNNVCMAAVFVDRAGEWKLGGLDYMYSAQGNGGGPPRKGIPELEQYDPPELADSSGRVVREKWSADMWRLGCLIWEVFNGPLPRAAALRNPGKIPKTLVPHYCELVGANPKVRPNPARFLQNCRAPGGFMSNRFVETNLFLEEIQIKEPAEKQKFFQELSKSLDAFPEDFCRHKVLPQLLTAFEFGNAGAVVLTPLFKVGKFLSAEEYQQKIIPVVVKMFSSTDRAMRIRLLQQMEQFIQYLDEPTVNTQIFPHVVHGFLDTNPAIREQTVKSMLLLAPKLNEANLNVELMKHFARLQAKDEQGPIRCNTTVCLGKIGSYLSASTRHRVLTSAFSRATRDPFAPSRVAGVLGFAATHNLYSMNDCAQKILPVLCGLTVDPEKSVRDQAFKAIRSFLSKLESVSEDPTQLEEVEKDVHAASSPGMGGAAASWAGWAVTGVSSLTSKLIRSHPTTAPTETNIPQRPTPEGVPAPAPTPVPATPTTSGHWETQEEDKDTAEDSSTADRWDDEDWGSLEQEAESVLAQQDDWSTGGQVSRASQVSNSDHKSSKSPESDWSSWEAEGSWEQGWQEPSSQEPPPDGTRLASEYNWGGPESSDKGDPFATLSARPSTQPRPDSWGEDNWEGLETDSRQVKAELARKKREERRREMEAKRAERKVAKGPMKLGARKLD
B3: Telomere length regulation protein TEL2 homolog (protein, UniProt Q9Y4R8 1-837, looked up)
Telomere length regulation …: MEPAPSEVRLAVREAIHALSSSEDGGHIFCTLESLKRYLGEMEPPALPREKEEFASAHFSPVLRCLASRLSPAWLELLPHGRLEELWASFFLEGPADQAFLVLMETIEGAAGPSFRLMKMARLLARFLREGRLAVLMEAQCRQQTQPGFILLRETLLGKVVALPDHLGNRLQQENLAEFFPQNYFRLLGEEVVRVLQAVVDSLQGGLDSSVSFVSQVLGKACVHGRQQEILGVLVPRLAALTQGSYLHQRVCWRLVEQVPDRAMEAVLTGLVEAALGPEVLSRLLGNLVVKNKKAQFVMTQKLLFLQSRLTTPMLQSLLGHLAMDSQRRPLLLQVLKELLETWGSSSAIRHTPLPQQRHVSKAVLICLAQLGEPELRDSRDELLASMMAGVKCRLDSSLPPVRRLGMIVAEVVSARIHPEGPPLKFQYEEDELSLELLALASPQPAGDGASEAGTSLVPATAEPPAETPAEIVDGGVPQAQLAGSDSDLDSDDEFVPYDMSGDRELKSSKAPAYVRDCVEALTTSEDIERWEAALRALEGLVYRSPTATREVSVELAKVLLHLEEKTCVVGFAGLRQRALVAVTVTDPAPVADYLTSQFYALNYSLRQRMDILDVLTLAAQELSRPGCLGRTPQPGSPSPNTPCLPEAAVSQPGSAVASDWRVVVEERIRSKTQRLSKGGPRQGPAGSPSRFNSVAGHFFFPLLQRFDRPLVTFDLLGEDQLVLGRLAHTLGALMCLAVNTTVAVAMGKALLEFVWALRFHIDAYVRQGLLSAVSSVLLSLPAARLLEDLMDELLEARSWLADVAEKDPDEDCRTLALRALLLLQRLKNRLLPPASP

Test system: Hsp90 complexes in K562 cell extract
Assay: Nano-LC-MS/MS of PU-beads pull-downs
Format: binding
Conditions: for Matched Peptides by Fraction JA03: Run1, gel size cut 110-150; for Matched Peptides by Fraction JA10: Run2, gel size cut 110-150; for MAXIMUM matched peptides: maximum over fractions JA01-JA14; for Total fmol: protein isolated in PU-beads pull-downs, Waters Xevo QTof MS
Experimental: Protein cargo isolated from cell lysate with PU-beads or control-beads was subjected to proteomic analysis by nano liquid chromatography coupled to tandem mass spectrometry (nano LC-MS/MS). Initial protein identification was performed using the Mascot search engine, and was further evaluated using Scaffold Proteome Software (Tables 5a-d).
Lysates prepared as mentioned above were first pre-cleaned by incubation with control beads overnight at 4° C. […] Beads were washed with lysis buffer, proteins eluted by boiling in 2% SDS, separated on a denaturing gel and Coomassie stained according to manufacturer's procedure (Biorad). […] Analyses of the batch purified pools were done using a QSTAR-Elite hybrid quadrupole time-of-flight mass spectrometer (QTof MS) (AB/MDS Sciex), equipped with a nano spray ion source. Peptide mixtures (in 20 μL) are loaded onto a trapping guard column (0.3×5-mm PepMap C18 100 cartridge from LC Packings) using an Eksigent nano MDLC system (Eksigent Technologies, Inc) at a flow rate of 20 μL/min. […] Electrospray ionization (ESI) needle voltage was set at about 1800 V. The mass analyzer is operated in automatic, data-dependent MS/MS acquisition mode, with the threshold set to 10 counts per second of doubly or triply charged precursor ions selected for fragmentation scans. Survey scans of 0.25 sec are recorded from 400 to 1800 amu; up to 3 MS/MS scans are then collected sequentially for the selected precursor ions, recording from 100 to 1800 amu. The collision energy is automatically adjusted in accordance with the m/z value of the precursor ions selected for MS/MS. Selected precursor ions are excluded from repeated selection for 60 sec after the end of the corresponding fragmentation duty cycle. […] One missed tryptic cleavage site was allowed, precursor ion mass tolerance=0.4 Da fragment ion mass tolerance=0.4 Da, protein modifications were allowed for Met-oxide, Cys-acrylamide and N-terminal acetylation. MudPit scoring was typically applied with ‘require bold red’ activated, and using significance threshold score p<0.05. Unique peptide counts (or ‘spectral counts’) and percent sequence coverages for all identified proteins were exported to Scaffold Proteome Software (version 2_06_01, www.proteomesoftware.com) for further bioinformatic analysis (Table 5a). Using output from Mascot, Scaffold validates, organizes, and interprets mass spectrometry data, allowing more easily to manage large amounts of data, to compare samples, and to search for protein modifications.

Molecule | Matched Peptides by Fraction JA03 (PU-beads pull-down) | Matched Peptides by Fraction JA10 (PU-beads pull-down) | MAXIMUM matched peptides (PU-beads pull-down) | Total fmol | Matched Peptides by Fraction JA04 (PU-beads pull-down, Run1, gel size cut 80-110) | Matched Peptides by Fraction JA11 (PU-beads pull-down, Run2, gel size cut 80-110)
B1 | 16 | 24 | 24 | 10.1079 fmol | – | –
B2 | 11 | 21 | 21 | 14.6654 fmol | – | –
B3 | – | – | 25 | 7.6607 fmol | 25 | 20
